The values below come from the supplement of paper PMC6411743.

The chains behind the UniProt entries cited, without tags or fusion partners. Where a name states a change or a piece, a line headed by the entry shows the natural chain unless it says otherwise.
UniProt Q9BQ69: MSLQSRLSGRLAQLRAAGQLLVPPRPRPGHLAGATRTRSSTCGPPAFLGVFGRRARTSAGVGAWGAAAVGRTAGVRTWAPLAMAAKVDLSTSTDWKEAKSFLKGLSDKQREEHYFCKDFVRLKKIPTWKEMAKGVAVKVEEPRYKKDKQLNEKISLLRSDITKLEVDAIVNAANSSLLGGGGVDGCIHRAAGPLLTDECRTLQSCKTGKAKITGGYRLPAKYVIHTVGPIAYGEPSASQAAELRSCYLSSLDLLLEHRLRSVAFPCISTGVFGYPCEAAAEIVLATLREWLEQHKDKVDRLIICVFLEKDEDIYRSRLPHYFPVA
UniProt Q9C035: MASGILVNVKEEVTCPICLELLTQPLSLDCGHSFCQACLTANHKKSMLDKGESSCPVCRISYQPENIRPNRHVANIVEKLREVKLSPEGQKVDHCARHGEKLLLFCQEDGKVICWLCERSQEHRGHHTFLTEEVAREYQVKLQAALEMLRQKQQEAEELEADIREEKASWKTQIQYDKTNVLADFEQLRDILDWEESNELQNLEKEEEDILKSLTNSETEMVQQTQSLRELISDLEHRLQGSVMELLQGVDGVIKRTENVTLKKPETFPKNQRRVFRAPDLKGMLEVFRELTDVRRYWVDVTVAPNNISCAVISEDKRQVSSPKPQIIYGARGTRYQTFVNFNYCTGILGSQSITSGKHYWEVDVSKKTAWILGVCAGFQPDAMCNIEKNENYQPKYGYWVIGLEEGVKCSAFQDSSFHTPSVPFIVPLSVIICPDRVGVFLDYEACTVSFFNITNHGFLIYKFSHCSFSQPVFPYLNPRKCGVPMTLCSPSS
UniProt Q99728: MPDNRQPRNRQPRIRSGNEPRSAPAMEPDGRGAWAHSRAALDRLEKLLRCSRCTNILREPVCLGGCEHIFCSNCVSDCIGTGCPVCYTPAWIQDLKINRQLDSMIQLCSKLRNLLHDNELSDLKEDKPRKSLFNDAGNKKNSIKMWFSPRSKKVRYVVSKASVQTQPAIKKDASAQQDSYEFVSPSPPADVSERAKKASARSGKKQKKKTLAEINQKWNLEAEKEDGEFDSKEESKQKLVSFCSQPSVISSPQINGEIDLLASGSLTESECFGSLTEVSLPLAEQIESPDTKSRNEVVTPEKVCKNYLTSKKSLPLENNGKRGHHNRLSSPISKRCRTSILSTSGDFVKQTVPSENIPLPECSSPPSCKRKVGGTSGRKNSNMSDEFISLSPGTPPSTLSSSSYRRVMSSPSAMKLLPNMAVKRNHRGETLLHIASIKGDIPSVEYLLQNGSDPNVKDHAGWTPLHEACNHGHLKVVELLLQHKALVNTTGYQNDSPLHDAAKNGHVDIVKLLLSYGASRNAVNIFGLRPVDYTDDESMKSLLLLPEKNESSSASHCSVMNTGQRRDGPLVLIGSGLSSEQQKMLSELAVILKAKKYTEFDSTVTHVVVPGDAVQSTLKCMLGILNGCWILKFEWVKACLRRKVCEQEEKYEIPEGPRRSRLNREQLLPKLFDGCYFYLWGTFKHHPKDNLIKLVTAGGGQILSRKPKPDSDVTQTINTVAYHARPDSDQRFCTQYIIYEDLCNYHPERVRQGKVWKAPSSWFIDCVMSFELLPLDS
UniProt Q9BRT2: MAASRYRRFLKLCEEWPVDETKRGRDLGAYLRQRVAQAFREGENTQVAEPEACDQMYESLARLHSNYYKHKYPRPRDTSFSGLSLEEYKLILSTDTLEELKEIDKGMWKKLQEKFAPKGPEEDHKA
UniProt Q9BX67: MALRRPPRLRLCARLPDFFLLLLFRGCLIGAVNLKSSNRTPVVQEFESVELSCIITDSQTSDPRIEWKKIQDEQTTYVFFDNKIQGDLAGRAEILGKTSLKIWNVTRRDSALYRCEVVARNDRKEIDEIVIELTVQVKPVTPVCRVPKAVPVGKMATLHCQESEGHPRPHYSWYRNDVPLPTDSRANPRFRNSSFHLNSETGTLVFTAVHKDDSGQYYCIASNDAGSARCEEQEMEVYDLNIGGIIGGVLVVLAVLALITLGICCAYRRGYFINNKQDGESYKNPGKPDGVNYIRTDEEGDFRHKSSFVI
UniProt Q9BSJ8: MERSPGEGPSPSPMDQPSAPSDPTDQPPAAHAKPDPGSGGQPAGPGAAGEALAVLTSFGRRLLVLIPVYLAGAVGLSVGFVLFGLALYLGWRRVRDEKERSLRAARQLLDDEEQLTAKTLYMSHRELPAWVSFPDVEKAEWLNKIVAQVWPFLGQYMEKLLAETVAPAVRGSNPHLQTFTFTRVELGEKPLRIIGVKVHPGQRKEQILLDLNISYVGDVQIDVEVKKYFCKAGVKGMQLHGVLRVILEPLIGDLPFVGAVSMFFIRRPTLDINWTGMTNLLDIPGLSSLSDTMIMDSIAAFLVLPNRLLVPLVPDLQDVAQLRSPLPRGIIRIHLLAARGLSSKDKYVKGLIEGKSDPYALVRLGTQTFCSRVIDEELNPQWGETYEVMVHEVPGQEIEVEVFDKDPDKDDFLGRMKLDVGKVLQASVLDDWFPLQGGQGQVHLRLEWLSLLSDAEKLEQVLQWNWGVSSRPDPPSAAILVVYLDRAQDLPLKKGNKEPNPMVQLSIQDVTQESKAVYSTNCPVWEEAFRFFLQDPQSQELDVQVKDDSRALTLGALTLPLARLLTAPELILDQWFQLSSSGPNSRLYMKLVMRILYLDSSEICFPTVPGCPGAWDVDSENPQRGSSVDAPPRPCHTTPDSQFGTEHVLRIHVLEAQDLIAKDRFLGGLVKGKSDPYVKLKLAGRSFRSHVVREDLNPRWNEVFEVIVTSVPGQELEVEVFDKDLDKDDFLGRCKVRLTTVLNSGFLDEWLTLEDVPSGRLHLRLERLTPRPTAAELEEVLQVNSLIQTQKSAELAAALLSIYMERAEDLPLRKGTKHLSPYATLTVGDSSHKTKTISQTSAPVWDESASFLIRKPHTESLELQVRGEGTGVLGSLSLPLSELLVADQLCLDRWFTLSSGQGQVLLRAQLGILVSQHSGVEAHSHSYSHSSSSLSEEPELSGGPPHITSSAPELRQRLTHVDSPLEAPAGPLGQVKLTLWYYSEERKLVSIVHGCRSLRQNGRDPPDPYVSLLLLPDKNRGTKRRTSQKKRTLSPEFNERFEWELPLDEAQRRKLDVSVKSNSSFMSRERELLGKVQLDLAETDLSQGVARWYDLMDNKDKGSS
UniProt Q9BXS5: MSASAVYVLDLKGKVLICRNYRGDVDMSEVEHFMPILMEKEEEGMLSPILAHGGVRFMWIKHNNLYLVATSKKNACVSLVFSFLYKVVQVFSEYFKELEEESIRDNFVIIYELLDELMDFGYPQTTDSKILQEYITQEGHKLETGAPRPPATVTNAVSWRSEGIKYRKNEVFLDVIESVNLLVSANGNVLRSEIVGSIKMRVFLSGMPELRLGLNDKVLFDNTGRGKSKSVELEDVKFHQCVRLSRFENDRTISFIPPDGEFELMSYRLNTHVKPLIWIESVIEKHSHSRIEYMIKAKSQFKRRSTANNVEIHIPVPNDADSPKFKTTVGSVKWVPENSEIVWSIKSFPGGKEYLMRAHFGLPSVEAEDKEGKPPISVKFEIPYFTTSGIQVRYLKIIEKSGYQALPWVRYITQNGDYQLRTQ
UniProt Q9BQ75: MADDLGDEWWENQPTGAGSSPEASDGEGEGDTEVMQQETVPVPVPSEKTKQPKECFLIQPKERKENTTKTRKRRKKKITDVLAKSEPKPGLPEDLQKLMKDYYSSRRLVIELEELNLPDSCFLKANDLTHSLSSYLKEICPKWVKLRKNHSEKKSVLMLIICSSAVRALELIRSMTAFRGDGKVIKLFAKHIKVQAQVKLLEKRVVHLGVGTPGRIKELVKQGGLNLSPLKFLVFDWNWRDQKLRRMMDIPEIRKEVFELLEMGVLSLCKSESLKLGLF
UniProt Q9BRP1: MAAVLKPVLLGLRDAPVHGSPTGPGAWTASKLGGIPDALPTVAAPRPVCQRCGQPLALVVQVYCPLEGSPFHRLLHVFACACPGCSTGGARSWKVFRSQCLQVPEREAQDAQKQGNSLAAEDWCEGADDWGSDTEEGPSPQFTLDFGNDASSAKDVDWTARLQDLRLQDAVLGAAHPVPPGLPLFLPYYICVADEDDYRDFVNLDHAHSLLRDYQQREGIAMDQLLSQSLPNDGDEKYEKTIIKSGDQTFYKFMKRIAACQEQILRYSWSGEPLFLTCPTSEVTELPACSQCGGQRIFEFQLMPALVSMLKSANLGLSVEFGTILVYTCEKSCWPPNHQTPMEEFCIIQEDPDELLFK
UniProt Q9BVG9: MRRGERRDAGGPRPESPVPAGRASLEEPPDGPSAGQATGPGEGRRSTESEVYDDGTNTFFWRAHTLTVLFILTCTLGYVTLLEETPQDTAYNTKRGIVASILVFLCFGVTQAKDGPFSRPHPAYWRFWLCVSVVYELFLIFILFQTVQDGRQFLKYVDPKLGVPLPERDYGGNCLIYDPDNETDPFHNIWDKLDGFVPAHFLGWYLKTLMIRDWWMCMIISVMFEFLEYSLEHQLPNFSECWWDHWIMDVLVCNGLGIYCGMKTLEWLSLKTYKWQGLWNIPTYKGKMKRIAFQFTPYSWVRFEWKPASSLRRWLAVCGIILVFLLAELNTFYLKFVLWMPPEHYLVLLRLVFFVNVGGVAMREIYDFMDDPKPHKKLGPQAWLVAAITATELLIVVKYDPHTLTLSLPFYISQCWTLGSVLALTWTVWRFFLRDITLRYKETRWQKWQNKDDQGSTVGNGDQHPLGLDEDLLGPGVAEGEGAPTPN
UniProt Q99829: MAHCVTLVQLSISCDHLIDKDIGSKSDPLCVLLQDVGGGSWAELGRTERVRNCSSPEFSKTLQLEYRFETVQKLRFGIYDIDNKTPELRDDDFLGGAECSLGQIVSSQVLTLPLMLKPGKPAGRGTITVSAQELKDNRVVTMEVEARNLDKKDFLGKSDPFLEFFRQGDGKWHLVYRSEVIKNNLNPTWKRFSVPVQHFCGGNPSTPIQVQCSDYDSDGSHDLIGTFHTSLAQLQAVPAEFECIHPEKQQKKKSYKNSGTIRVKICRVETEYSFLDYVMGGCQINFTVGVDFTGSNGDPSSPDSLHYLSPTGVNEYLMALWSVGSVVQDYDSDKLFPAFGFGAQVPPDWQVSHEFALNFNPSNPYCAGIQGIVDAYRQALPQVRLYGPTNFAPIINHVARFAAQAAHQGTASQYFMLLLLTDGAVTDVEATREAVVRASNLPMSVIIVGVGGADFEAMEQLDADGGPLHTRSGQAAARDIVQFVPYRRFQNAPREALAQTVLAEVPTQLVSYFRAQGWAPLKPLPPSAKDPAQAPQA
UniProt Q9BUI4: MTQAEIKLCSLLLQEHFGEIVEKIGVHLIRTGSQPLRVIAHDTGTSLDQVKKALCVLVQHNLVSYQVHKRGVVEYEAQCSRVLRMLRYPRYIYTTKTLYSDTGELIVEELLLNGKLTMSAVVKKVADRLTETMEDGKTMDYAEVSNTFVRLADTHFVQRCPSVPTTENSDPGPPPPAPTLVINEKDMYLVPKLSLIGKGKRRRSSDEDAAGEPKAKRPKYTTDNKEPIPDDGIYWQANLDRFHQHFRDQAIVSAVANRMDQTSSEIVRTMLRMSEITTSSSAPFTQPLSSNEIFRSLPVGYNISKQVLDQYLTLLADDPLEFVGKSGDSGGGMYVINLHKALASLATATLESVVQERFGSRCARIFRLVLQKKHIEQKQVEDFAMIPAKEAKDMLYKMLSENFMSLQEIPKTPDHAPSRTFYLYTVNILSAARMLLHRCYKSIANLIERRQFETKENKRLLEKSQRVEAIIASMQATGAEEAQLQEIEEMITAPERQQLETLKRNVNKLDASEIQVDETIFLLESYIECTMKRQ
UniProt Q9BYV9: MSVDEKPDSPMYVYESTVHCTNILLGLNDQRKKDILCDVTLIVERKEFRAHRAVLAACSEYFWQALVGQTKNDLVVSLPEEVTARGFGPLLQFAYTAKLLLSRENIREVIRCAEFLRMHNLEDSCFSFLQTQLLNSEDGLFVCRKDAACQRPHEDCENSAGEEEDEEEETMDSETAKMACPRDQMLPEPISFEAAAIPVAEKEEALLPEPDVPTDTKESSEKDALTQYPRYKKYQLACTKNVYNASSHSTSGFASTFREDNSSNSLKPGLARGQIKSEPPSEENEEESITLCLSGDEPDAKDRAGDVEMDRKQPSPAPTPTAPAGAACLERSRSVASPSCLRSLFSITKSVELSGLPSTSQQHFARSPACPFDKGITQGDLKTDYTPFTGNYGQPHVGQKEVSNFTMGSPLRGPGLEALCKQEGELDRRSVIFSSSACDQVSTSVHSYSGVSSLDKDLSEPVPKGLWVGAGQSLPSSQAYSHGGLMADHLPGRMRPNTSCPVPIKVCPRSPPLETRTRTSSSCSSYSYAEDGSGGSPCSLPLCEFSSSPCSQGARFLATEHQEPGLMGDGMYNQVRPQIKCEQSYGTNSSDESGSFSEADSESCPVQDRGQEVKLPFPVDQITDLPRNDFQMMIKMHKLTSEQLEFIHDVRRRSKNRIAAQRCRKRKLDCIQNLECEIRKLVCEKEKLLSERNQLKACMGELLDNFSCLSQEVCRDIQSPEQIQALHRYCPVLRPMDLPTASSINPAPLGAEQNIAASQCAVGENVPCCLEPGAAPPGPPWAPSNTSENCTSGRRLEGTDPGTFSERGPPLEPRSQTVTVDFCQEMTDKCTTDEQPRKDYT

± gives the standard deviation of the averaged measurements. Only a part is listed here, and it is no random draw. Most entries show no effect beyond the scatter of the controls.

Compound in one assay: Nc1ncnc2c1ncn2[C@@H]1O[C@H](COP(=O)(O)OP(=O)(O)OP(=O)(O)O)[C@@H](O)[C@H]1O [adenosine triphosphate]
In words: NP40-soluble protein abundance relative to vehicle (solubility fold change) (ratio); higher = more soluble protein in presence of ATP. Conditions: concentration: 0.1mM. The essentials: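 Each value is a fold change relative to the detergent-processed vehicle, calculated per replicate from vsn-normalised intensities. Jurkat crude lysate received eight concentrations (0.1 to 10 mM) for 10 min at room temperature and 3 min at 37 °C, then was solubilised in 0.8% NP40 with benzonase (60 min, 4 °C). The ultracentrifuged supernatant was TMT-labelled and run by LC-MS/MS in three independent experiments.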
Consider MACROD1 (UniProt Q9BQ69), for which the NP40-soluble protein abundance amounted to 0.989 ± 0.036. UniProt Q9BZL1: the NP40-soluble protein abundance stood at 1.05 ± 0.071. With ACBD6 (UniProt Q9BR61), the NP40-soluble protein abundance amounted to 0.95 ± 0.035. Turning to UniProt Q9C035 and related entries, the NP40-soluble protein abundance amounted to 0.986 ± 0.07. The same measure, in the same setting: as for UniProt Q9BZI7 and related entries, the figure is 0.997 ± 0.01; as for UniProt Q99728 and related entries, 0.976 ± 0.087; as for UniProt Q9BRT2 and related entries, 0.978 ± 0.11. As to UniProt Q9BX67, the NP40-soluble protein abundance was determined as 0.99 ± 0.059.

The assay is the same for the next values; noted with them: concentration: 0.5mM.
Consider NUF2 (UniProt Q9BZD4), for which the NP40-soluble protein abundance was determined as 0.973 ± 0.032. UniProt Q99729-3|Q99729: the NP40-soluble protein abundance turned out to be 0.987 ± 0.033. In the case of HIRIP3 (UniProt Q9BW71), the NP40-soluble protein abundance was found to be 0.946 ± 0.064. Regarding SGPP1 (UniProt Q9BX95), the NP40-soluble protein abundance was found to be 0.954 ± 0.04. Same read-out and setting: to UniProt Q9BSJ8 and related entries belongs 1.05 ± 0.08; to UniProt Q9BRX9, 0.982 ± 0.1; to TXNDC17 (UniProt Q9BRA2), 0.982 ± 0.063. In the case of UniProt Q9BWS9 and related entries, the NP40-soluble protein abundance stood at 1.06 ± 0.08. As to WDR11 (UniProt Q9BZH6), the NP40-soluble protein abundance is 0.956 ± 0.056. Turning to UniProt Q9BXS5 and related entries, the NP40-soluble protein abundance is 1 ± 0.068.

For the target UniProt Q9BSD7, the NP40-soluble protein abundance was determined as 1.088 ± 0.0027. Regarding UniProt Q9BQ75 and related entries, the NP40-soluble protein abundance came to 0.936 ± 0.096. For the target MED18 (UniProt Q9BUE0), the NP40-soluble protein abundance is 1.08 ± 0.077. With PDCD2L (UniProt Q9BRP1), the NP40-soluble protein abundance came to 1.02 ± 0.067. Take UniProt Q9BSI4-2: the NP40-soluble protein abundance was determined as 1.25 ± 0.04.

For the target UniProt Q9BRP8-2|Q9BRP8, the NP40-soluble protein abundance was 0.911 ± 0.13.

With UniProt Q99733-2, the NP40-soluble protein abundance was 1.01 ± 0.08. Turning to PTDSS2 (UniProt Q9BVG9), the NP40-soluble protein abundance came out at 0.896 ± 0.066. For the target UniProt Q99447 and related entries, the NP40-soluble protein abundance is 1.03 ± 0.095. Regarding THUMPD3 (UniProt Q9BV44), the NP40-soluble protein abundance worked out at 1.02 ± 0.059.

Regarding CPNE1 (UniProt Q99829), the NP40-soluble protein abundance turned out to be 0.995 ± 0.052. Consider GINS4 (UniProt Q9BRT9), for which the NP40-soluble protein abundance is 0.965 ± 0.066.

On to POLR3C (UniProt Q9BUI4), for which the NP40-soluble protein abundance stood at 1 ± 0.022. On the same count and under the same terms, as for NEU1 (UniProt Q99519), the figure is 0.998 ± 0.087. In the case of KATNAL1 (UniProt Q9BW62), the NP40-soluble protein abundance was 1.02 ± 0.089.

On to GTPBP4 (UniProt Q9BZE4), for which the NP40-soluble protein abundance worked out at 1.17 ± 0.019. Regarding BACH2 (UniProt Q9BYV9), the NP40-soluble protein abundance worked out at 1.05 ± 0.053. In the case of UniProt Q9BZ95 and related entries, the NP40-soluble protein abundance came out at 1.18 ± 0.056.

Take UniProt Q9BVJ6 and related entries: the NP40-soluble protein abundance came to 1.05 ± 0.047. Take MACROD1 (UniProt Q9BQ69): the NP40-soluble protein abundance turned out to be 0.9694 ± 0.0022. Take UniProt Q9BZL1: the NP40-soluble protein abundance turned out to be 1.06 ± 0.059. As to ACBD6 (UniProt Q9BR61), the NP40-soluble protein abundance came out at 0.929 ± 0.032.

For the target UniProt Q9C035 and related entries, the NP40-soluble protein abundance was 0.976 ± 0.056. For the target UniProt Q9BZI7 and related entries, the NP40-soluble protein abundance turned out to be 1.03 ± 0.053.

Consider UniProt Q99728 and related entries, for which the NP40-soluble protein abundance is 1.05 ± 0.034. With UniProt Q9BRT2 and related entries, the NP40-soluble protein abundance was determined as 0.909 ± 0.12. The same measure, in the same setting: to UniProt Q9BX67 belongs 1 ± 0.033.
